In PubChem BioAssay AID504444 (National Center for Advancing Translational Sciences (NCATS), 2011):
The campaign covered roughly 360,000 compounds. About 7,500 (2.1%) were called active. Inconclusive means that the source gave no clear call. Such entries were picked first, then a sample of the others. Calls come from the whole dose curve; as a rule, active = well fitted inhibition curve with a large enough effect; inconclusive = small, poorly fitted or top-dose-only effect, or effect the other way; inactive = flat fitted curve, though single readings scatter. Potencies of inconclusive entries are doubtful fits and often do not repeat.

Test: Nrf2 qHTS screen for inhibitors; note: nearly all actives have a fitted effect of over 60% in size
Details: A549 ARE-Fluc reporter, luciferase luminescence, 18-24 h; activity change, negative = inhibition: at 46 µM (top of the series)
Method in brief: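 Nrf2 function is reported as luminescence of an ARE-controlled luciferase in A549 cells. Compounds were tested at several concentrations, and a CellTiter-Fluor read on the same wells flagged cytotoxicity.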
% is set by controls: 0 for no effect and ±100 for the full control effect; potency is the fitted concentration of half-maximal effect.

SMILES	Potency	activity change, negative = inhibition
O=C(CNC(=O)c1cc(S(=O)(=O)N2CCOCC2)ccc1N1CCCC1)Nc1ccc(F)c(F)c1	inconclusive: 4.61 µM [falling, partial curve, poor fit]	
Cc1cc(C(=O)OCC(=O)NC(=O)C2CCCCC2)ccc1[N+](=O)[O-]		inactive: -0.716%
CC(C=NNC(=O)C(=O)NN=CC(C)=Cc1ccccc1)=Cc1ccccc1	inconclusive: 18.4 µM [activator, partial curve, poor fit]	
N#CC1=C2N=C(N)c3c(sc4c3CCCCC4)N2C2=C(C(=O)CCC2)C1c1ccccc1 (centres undefined)	inconclusive: 29.1 µM [falling, single point]	
Cc1csc2nc(COC(=O)c3ccc(F)cc3)cc(=O)n12	inconclusive: 29.1 µM [activator, single point]	
Cc1ccc(-c2nc(N)sc2-c2ccc(C)cc2)cc1	inconclusive: 1.64 µM [falling, partial curve, poor fit]	
Cc1onc(-c2ccccc2)c1C(=O)NC(=S)NNC(=O)c1ccc(O)cc1	inconclusive: 14.6 µM [falling, partial curve]	
O=C(Nc1ccccc1)c1nc[nH]c1C(=O)NCCNC(=O)c1[nH]cnc1C(=O)Nc1ccccc1		inactive: -2.47%
COc1cc(C#Cc2c(-c3cncn3C)n(C)c3ccc(-c4cnc(OC)nc4)cc23)cc(OC)c1	inconclusive: 18.4 µM [falling, single point]	
CCOC(=O)c1c(NC(=O)COC(=O)CNC(=O)c2ccc(Cl)cc2Cl)sc(C(=O)N(C)C)c1C	inconclusive: 14.6 µM [activator, partial curve]	
COc1ccc(-c2cc(OC(=O)c3ccccc3C)c3c(C)oc(C)c3c(=O)c2)cc1		inactive: 5.78%
COc1ccc2cc(C(=O)C3CCCN(C(=O)/C=C/c4ccccn4)C3)ccc2c1 (centres undefined)		inactive: 4.72%
COc1ccc(Nc2nc(N)c(C(=O)c3ccc(OC)cc3)s2)cc1	inconclusive: 29.1 µM [activator, single point]	
CCOC(=O)N1CCC(NC(=O)CSc2cc(=O)n(C)c3ccccc23)CC1	inconclusive: 25.9 µM [falling, single point]	
COc1ccc(-c2noc(CSc3nnc(CCc4ccccc4)n3-c3ccccc3)n2)cc1OC	inconclusive: 29.1 µM [falling, single point]	
O=[N+]([O-])c1c(NCCO)cc(N2CCN(Cc3ccc4c(c3)OCO4)CC2)c2nonc12		inactive: 7.19%
O=C(N[C@@H]1C/C=C\C[C@@H](CC(=O)N(CCO)Cc2ccccc2)C(=O)NC[C@H](c2ccccc2)OC1=O)OCC1c2ccccc2-c2ccccc21	inconclusive: 29.1 µM [falling, single point]	
COc1ccc(-n2c(O)c(C=NCc3ccccn3)c3ccccc3c2=O)c(OC)c1	inconclusive: 0.092 µM [falling, full curve, poor fit]	
C=CCn1c(SCC(=O)N2CCc3ccccc3C2)nc2sc(C)cc2c1=O	inconclusive: 18.4 µM [falling, single point]	
O=C(N/N=C\c1ccccc1)c1ccccc1-n1cccc1		inactive: 4.23%
Cc1cccc(N(CC(=O)NCc2ccccc2)S(C)(=O)=O)c1C		inactive: 11.2%
CC(=O)n1cc(C(C[N+](=O)[O-])SCCN)c2ccccc21 (centres undefined)	inconclusive: 29.1 µM [falling, single point]	

Full records from above.
Cc1onc(-c2ccccc2)c1C(=O)NC(=S)NNC(=O)c1ccc(O)cc1 as listed: Potency: inconclusive: 14.6 µM [falling, partial curve]
O=C(N/N=C\c1ccccc1)c1ccccc1-n1cccc1 as listed: activity change, negative = inhibition: inactive: 4.23%
Cc1ccc(-c2nc(N)sc2-c2ccc(C)cc2)cc1 as listed: Potency: inconclusive: 1.64 µM [falling, partial curve, poor fit]
N#CC1=C2N=C(N)c3c(sc4c3CCCCC4)N2C2=C(C(=O)CCC2)C1c1ccccc1 (centres undefined) as listed: Potency: inconclusive: 29.1 µM [falling, single point]

Later entries:

SMILES	Potency	activity change, negative = inhibition
Cc1ccc(C)c(NC(=O)Cn2cnc3c(oc4ccccc43)c2=O)c1	inactive	
COc1cc(NC(=O)c2cc3cccc(OC)c3o2)cc(C(=O)Nc2cccc(C(F)(F)F)c2)c1	inconclusive: 29.1 µM [falling, single point]	
Cc1cc(C)cc(-n2nnnc2SCC(=O)Nc2cccc(NC(=O)c3ccco3)c2)c1	inconclusive: 13 µM [falling, partial curve, poor fit]	
C=CCn1c(C)cc(C(=O)CSc2n[nH]c(N)n2)c1C	inconclusive: 3.26 µM [activator, partial curve, poor fit]	
COc1ccc(CNC(=O)CSCc2nc(-c3ccccc3F)oc2C)cc1		inactive: -4.11%
CC(C)(C)c1ccc(-c2noc(CCC(=O)NCC3CCCO3)n2)cc1 (centres undefined)	active: 0.58 µM	
Cc1ccc(/C=C/C(=O)N2CCN(c3ccc(F)cc3)CC2)o1	inconclusive: 23.1 µM [falling, partial curve, poor fit]	
COc1ccc(-c2nn(-c3ccccc3)cc2/C=C(\C#N)S(=O)(=O)c2ccccc2)cc1OC	inconclusive: 29.1 µM [falling, partial curve, poor fit]	
Cc1ccc(S(=O)(=O)NC2=NCN(CC(=O)O)CN2)cc1	inconclusive: 32.6 µM [falling, partial curve, poor fit]	
O=S(=O)(Nc1ccccc1)c1ccc(NS(=O)(=O)c2cccs2)cc1	inconclusive: 13 µM [falling, partial curve, poor fit]	
CCOC(=O)c1sc(NC(=O)c2cccc(S(=O)(=O)N3CCc4ccccc43)c2)c(C#N)c1C	active: 5.8 µM	
CCNC(=O)N1CCN(CCCC(c2ccc(F)cc2)c2ccc(F)cc2)CC1	inconclusive: 29.1 µM [falling, single point]	
O=C(c1ccncc1)c1ccc(N2CCN(C3CC(=O)N(Cc4ccccc4)C3=O)CC2)cc1 (centres undefined)	inconclusive: 18.4 µM [falling, single point]	
N#Cc1ccc(C(=O)NC2=NCCS2)cc1	inconclusive: 5.8 µM [activator, partial curve, poor fit]	
CCN1CCN(C(CNS(=O)(=O)c2ccc(Cl)cc2)c2ccccc2)CC1 (centres undefined)		inactive: 0%
COc1cccc(NC(=S)N2CCN(C/C=C/c3ccccc3)CC2)c1	inconclusive: 29.1 µM [falling, single point]	
CC1=C(C(=O)OC2CCCC2)C(c2ccc(C)o2)C2=C(CC(c3cccs3)CC2=O)N1 (centres undefined)	inconclusive: 20.6 µM [falling, single point]	
CC(=O)N/N=C(\C)CC(=O)Nc1cccc2c1CCCC2	inconclusive: 5.17 µM [activator, full curve, poor fit]	
COc1cccc(NC(=S)N(CCCN2CCCC2)Cc2cccn2Cc2ccc(Cl)cc2)c1		inactive: -0.192%
O=C(CSc1nnnn1-c1ccccc1)NC(=O)Nc1ccc2c(c1)OCCO2	inconclusive: 20.6 µM [activator, single point]	
O=C1c2ccccc2C(=O)N1CCCc1c[nH]c2ccc(Cl)cc12		inactive: -15.3%
Cc1ccc(NC(=O)NCc2nc3ccccc3n2C)cc1	inconclusive: 25.9 µM [activator, partial curve, poor fit]	

SMILES	Potency	activity change, negative = inhibition
Cc1cccc(C(=O)NNC(=S)NC(=O)c2ccccc2)c1	inconclusive: 20.6 µM [falling, single point]	
Nc1ccc(C(=O)OCC(=O)Nc2ccc([N+](=O)[O-])cc2C(F)(F)F)cc1		inactive: -5.07%
CCc1ccccc1Nc1nc(N)nc(CSc2nnc3ccccn23)n1	inconclusive: 16.4 µM [activator, partial curve, poor fit]	
CCc1cc(C(c2ccc(OC)c(OC)c2)N2CCOCC2)c(NC(=O)c2ccccc2)s1 (centres undefined)		inactive: 14.7%
COc1ccccc1/C=C/C(=O)NC(=S)N1CCOCC1	inconclusive: 25.9 µM [activator, single point]	
CCc1cc(=O)oc2c3c(cc(OCC(=O)NCc4ccncc4)c12)OC(C)(C)CC3	inconclusive: 16.4 µM [falling, single point]	
CCN(CC)S(=O)(=O)c1ccc(NC(=O)CN(c2cccc(F)c2)S(C)(=O)=O)cc1	inconclusive: 29.1 µM [falling, partial curve, poor fit]	
CCOC(=O)Cn1c(C2CC(=O)N(c3ccc(C)cc3)C2)nc2ccccc21 (centres undefined)	active: 20.6 µM	
CCc1cc(C(=O)NNC(=S)NCc2ccccc2)cs1	inconclusive: 32.6 µM [falling, single point]	
Clc1ccc(-c2ccc(CNCC3CCCO3)o2)cc1 (centres undefined)	inconclusive: 18.4 µM [activator, single point]	
CSc1ccc(/C=C(\C#N)C(=O)NC2CCCCC2)cc1	inconclusive: 0.058 µM [falling, partial curve, poor fit]	
CSc1nnc(-c2ccccc2Cl)o1	inconclusive: 2.06 µM [activator, partial curve]	
COc1ccc(N2CCN(C(=O)CN=C3NS(=O)(=O)C(c4ccc(C)cc4)=C3C)CC2)cc1	inconclusive: 2.59 µM [falling, full curve]	
CCCCN(CC)C(=O)CSc1cc(=O)n(C)c2ccccc12	inconclusive: 9.2 µM [falling, partial curve, poor fit]	
O=c1c2c3c(sc2nc2n1CCCC2)CCCCC3	inconclusive: 3.26 µM [activator, partial curve]	
CCOC(=O)c1sc(=NC(=O)c2ccc(OC(C)C)cc2)n(C)c1C	inconclusive: 11.6 µM [activator, partial curve]	
CC1=C(C(=O)OCc2ccccc2)C(c2ccco2)n2ncnc2N1 (centres undefined)	inconclusive: 23.1 µM [falling, partial curve, poor fit]	
NC(=O)CC(NC(=O)Cc1cccc2ccccc12)c1ccc(NCc2cc(F)ccc2F)c([N+](=O)[O-])c1 (centres undefined)	inconclusive: 25.9 µM [falling, partial curve, poor fit]	
COC(=O)c1cc(NC(=O)c2cccc(C(F)(F)F)c2)c(=O)oc1C	inconclusive: 6.51 µM [falling, single point]	
CCCCOCCCNc1ncnc2c1[nH]c1ccccc12	active: 9.2 µM	
